# Data taken from the supplement of paper PMC5949888.
# Most values lie at the floor of the assay. Slopes are relative: functional sequences can read slightly below zero.
# Test system: Saccharomyces cerevisiae PS128 hsf1 delta, HSF1(1-493) fusion
# Test: growth estimate (transactivation domain function in HSF1 fusion, heat-shock survival) (a.u. (slope of normalised read count over time)); higher = stronger growth at 37°C, i.e. more transactivation activity
# Details: library: random library
row,Substance,growth estimate
1,ESCEEIEHWARGGPCTQPHS,< -0.25
2,RLTSKISSLEASGVANYKCF,< -0.25
3,VNLQPCVHTSNGK,< -0.25
4,SRLNNMQIHRHAGAT,-0.139
5,GLRMLSRPIER,< -0.25
6,TLSCEVRPYG,< -0.25
7,YRNTTRLTVRMNYVVHDRHI,< -0.25
8,RKLGL,< -0.25
9,GLAHVHGVLSAGLQSVGVNQ,< -0.25
10,RAGRT,< -0.25
11,SQLGR,< -0.25
12,HFVHVLGAAHSIILSSKTAR,< -0.25
13,GPIYVRSYE,< -0.25
14,ARESMFRKVRFRSRQSWDWP,< -0.25
15,LNGYVTQVVGLGRAKPHGIC,< -0.25
16,GINTVEDALKYGGACGSMSV,< -0.25
17,WYGF,< -0.25
18,SWEQTWCLLQSL,< -0.25
19,YNLPLHASSHRNAVGCPDTT,< -0.25
20,ALKA,-0.243
21,ADGPLFNG,< -0.25
22,GQLWSRRVEGRSWVLLFPGI,< -0.25
23,TLAAGRTARNPAASVQ,< -0.25
24,PKPNNRPSPVIVWRGFLE,-0.243
25,KGRYAG,< -0.25

row,Substance,growth estimate
1,ANDERILAWLWKSSSRERSR,< -0.25
2,PATVENRYNGDSL,< -0.25
3,LISALLSASRRESCLDSIPP,< -0.25
4,STAGTGARKHERAGPVYTLG,< -0.25
5,FTDRCLGRRAITVSSATLKP,< -0.25
6,RTLC,< -0.25
7,REGAR,< -0.25
8,TTPPEYSSAGRSLPQILRDP,< -0.25
9,QGGRT,< -0.25
10,SNSFSYQDGSLNPGTLDSNG,< -0.25
11,FTATEWQEVVLARPGGSVLA,< -0.25
12,RLNPGEFH,< -0.25
13,EDL,< -0.25
14,VGP,< -0.25
15,DRSHY,< -0.25
16,GTRR,< -0.25
17,MLPKELQPVTTWP,< -0.25
18,TLWWGVRLSTRVRKMAARRI,< -0.25
19,VMARFQKRNSGRALPLLSET,< -0.25
20,SMPVSGG,< -0.25
21,RSEEIAKVLRGEKRPGYFSQ,< -0.25
22,VRQC,< -0.25
23,IRVEYRR,< -0.25
24,ERIYYL,< -0.25
25,VLFPAWLVRPRCSPDYQIVT,< -0.25

row,Substance,growth estimate
1,PLYICGASKCVSSQSTQVSK,< -0.25
2,EGQ,< -0.25
3,QVKDQRRGRVPEKRVQRWNL,< -0.25
4,VPLRV,< -0.25
5,ATQGPIAVSE,< -0.25
6,KCQDVLD,< -0.25
7,SGSTYQ,< -0.25
8,IVKAEVVSIVRVGRIAGASH,< -0.25
9,RVNGRVKSV,< -0.25
10,AKWRGSPRHLDEDGGLEVKR,< -0.25
11,FSLECS,< -0.25
12,DRVRTGVGYPISCCQYLPTV,< -0.25
13,LPKTWRVADCTGNASAYCGV,< -0.25
14,GNQEAASIDNGTGYSEDIAR,< -0.25
15,ACLGKALHGVILVLRAG,< -0.25
16,AKKRSMAAPSRFNSRAMLHA,< -0.25
17,TAISGYGLRR,< -0.25
18,QLSYAGVVTFERMRVAFYHM,< -0.25
19,PNKY,< -0.25
20,ICRFHKVGTVNSHRALHKEG,< -0.25
21,ALQ,< -0.25
22,DMSIGRASFLMLV,< -0.25
23,IEVQTIVRTRHSFTTPVPT,< -0.25
24,GVHGVGVLRGSLLLKTSPIV,< -0.25
25,VSCWPRGSQFRTRNSKAAMA,< -0.25

# Nothing new here: an excerpt of the list.
row,Substance,growth estimate
8,TTPPEYSSAGRSLPQILRDP,< -0.25
9,QGGRT,< -0.25
10,SNSFSYQDGSLNPGTLDSNG,< -0.25
11,FTATEWQEVVLARPGGSVLA,< -0.25
12,RLNPGEFH,< -0.25
13,EDL,< -0.25
14,VGP,< -0.25
15,DRSHY,< -0.25
16,GTRR,< -0.25
17,MLPKELQPVTTWP,< -0.25
18,TLWWGVRLSTRVRKMAARRI,< -0.25
19,VMARFQKRNSGRALPLLSET,< -0.25
20,SMPVSGG,< -0.25
21,RSEEIAKVLRGEKRPGYFSQ,< -0.25
22,VRQC,< -0.25
23,IRVEYRR,< -0.25
24,ERIYYL,< -0.25
25,VLFPAWLVRPRCSPDYQIVT,< -0.25
1,PLYICGASKCVSSQSTQVSK,< -0.25
2,EGQ,< -0.25
3,QVKDQRRGRVPEKRVQRWNL,< -0.25
4,VPLRV,< -0.25
5,ATQGPIAVSE,< -0.25
6,KCQDVLD,< -0.25
7,SGSTYQ,< -0.25
8,IVKAEVVSIVRVGRIAGASH,< -0.25
9,RVNGRVKSV,< -0.25
10,AKWRGSPRHLDEDGGLEVKR,< -0.25
11,FSLECS,< -0.25
12,DRVRTGVGYPISCCQYLPTV,< -0.25
13,LPKTWRVADCTGNASAYCGV,< -0.25
14,GNQEAASIDNGTGYSEDIAR,< -0.25
15,ACLGKALHGVILVLRAG,< -0.25
16,AKKRSMAAPSRFNSRAMLHA,< -0.25
17,TAISGYGLRR,< -0.25
18,QLSYAGVVTFERMRVAFYHM,< -0.25
19,PNKY,< -0.25
20,ICRFHKVGTVNSHRALHKEG,< -0.25
21,ALQ,< -0.25
22,DMSIGRASFLMLV,< -0.25

# Next part.

row,Substance,growth estimate
1,TCPVRLAD,< -0.25
2,NRSLALVTPVRRNLNRPLRA,< -0.25
3,LEGFKFALERAFDLRRRPMQ,< -0.25
4,SSFYINHLEVLGLRKFTVIA,< -0.25
5,LQSTRVR,< -0.25
6,VFSQVERVFPLDSKRSVTWP,< -0.25
7,KNCGRRSFKQRVTIVNPGLA,< -0.25
8,SGQAIRCQFK,< -0.25
9,LVTFLTDCNYTGLGRF,< -0.25
10,SLCPVKWCA,< -0.25
11,LSYPESYPAVALAAVRRGVL,< -0.25
12,VHSVIRCSLVRIAVECSLGP,< -0.25
13,SGDCAHRTETHFCMDVLGGY,< -0.25
14,DYGNHRRSESQ,< -0.25
15,DQKIPSLWSQGEVLRTNGYL,< -0.25
16,TLQLGRTPGRCNVLGNCSKI,< -0.25
17,TITGRAMANGTGTVRVAPLS,< -0.25
18,EWAWYHLVLSGCRFTYASTS,< -0.25
19,EHVDRDGGSATLHSDPV,< -0.25
20,TNLLSHNFMIAILT,< -0.25
21,ERGTCYHGAALLEKNKSYSR,< -0.25
22,SQRPPWNTVRMCRLSHAFNY,< -0.25
23,KPVDSVRHSPRGPAKVWT,< -0.25
24,SCTNATVCRRGPVPTQYCIS,< -0.25
25,NVWMLFTDKHVGDPRDPAHY,-0.248

row,Substance,growth estimate
1,VVLALGL,< -0.25
2,LWKRHNFTYASRLRLCSRWL,< -0.25
3,RMNLGLSGV,< -0.25
4,RFTRLYTDI,< -0.25
5,DLWTQATQRYIRLVPSSVIF,< -0.25
6,GRADVN,< -0.25
7,LKVLIVSSI,< -0.25
8,RSSGLFSDRYLVFNRRERRL,< -0.25
9,NRGWPAWLI,< -0.25
10,LVSTDSATLQGNGVRPAVRL,< -0.25
11,VSYNGIAGLWRVTKHSCYRQ,< -0.25
12,VRRQVRPIRNCREFHVR,< -0.25
13,LQNVRLLPQVDIEEAYGPAA,-0.233
14,ASKRYPVRAYTTG,< -0.25
15,YMRRGTGHLQEP,< -0.25
16,QGGDYTAWTFQVQSYQSSRP,< -0.25
17,VSYTWSYEADGVLAERSLIS,< -0.25
18,DCAILCGINVFEA,< -0.25
19,RVRGGLNKCVGAGKHRQLRH,< -0.25
20,LERQNEPRALI,< -0.25
21,SFWG,< -0.25
22,SFVTSGKAQGNARH,< -0.25
23,WIADSQMGAFRVNYFHRHSN,< -0.25
24,NNGMGVWT,0.37
25,TSAWMHRGIEEKRPVVC,< -0.25

row,Substance,growth estimate
1,SPTGTGSQTVLCRLARCPNV,< -0.25
2,EPRVKLR,< -0.25
3,TIFNDNGT,< -0.25
4,GHWGTEFERSVSPCFTCVSI,< -0.25
5,SDDGSRASPLLAEPLQSSRD,< -0.25
6,CSRGYRCDGVK,< -0.25
7,YVWIHC,< -0.25
8,LQPWTPRLCLTAEVESTVLR,< -0.25
9,GPVVMGYC,< -0.25
10,ARGQ,< -0.25
11,KITWVARCPVYAQRGRL,-0.231
12,KERKC,< -0.25
13,GAQ,< -0.25
14,RRGRPRGGPTFQGFPYR,< -0.25
15,LHSQFNSLE,< -0.25
16,ISKDVGCGGAD,< -0.25
17,AQLWGS,< -0.25
18,KRLS,< -0.25
19,QNAGAMTAARPGGTAEASVV,< -0.25
20,TGEGSCSYKRHMLREGLYLS,< -0.25
21,ACY,< -0.25
22,SQCSYDWGVLVVSNRIARQV,< -0.25
23,TLGHGNVMAEY,< -0.25
24,GSGKHCIRGYY,< -0.25
25,EGIC,< -0.25

# Another view of some results above:
row | Substance | growth estimate
1 | SPTGTGSQTVLCRLARCPNV | < -0.25
2 | EPRVKLR | < -0.25

# Going on with the list:

row,Substance,growth estimate
1,SRSC,< -0.25
2,RIACPRI,< -0.25
3,RWREEVWRRL,< -0.25
4,PSSIPSHTTVAGIAPARQR,< -0.25
5,RRGGCSGFSNRKVA,< -0.25
6,HMVSAGHLRCAASLNAISAD,< -0.25
7,AALMPLPGVDD,< -0.25
8,GRAKTCAPHGIDLKSTRYEG,< -0.25
9,KSLEFLVNVYYFTPRIRHGG,< -0.25
10,VRSGFCCRNRLPGSRLHMWP,< -0.25
11,RADIPLRHRN,< -0.25
12,LWNNRTGHGLH,< -0.25
13,AVRHYEPWSHRNT,< -0.25
14,WWCFFGLLYDGFC,< -0.25
15,WGPTSYCRKQVTSGYLSQLV,< -0.25
16,CHRYGVCTPRCNSLVTVCRT,< -0.25
17,TAIRTGYVPEANILSATICR,< -0.25
18,TRLSSREP,< -0.25
19,SRVWDGNSSRRMASPTGSHR,< -0.25
20,QQVVSA,< -0.25
21,WPQIARGANSLYVGLLAEGS,< -0.25
22,GKPKFTDI,< -0.25
23,AYPPVAGMVTSIVS,< -0.25
24,VHRISANYESETSRVDGSTR,< -0.25
25,RHVLVFRDRERSRIMG,< -0.25

row,Substance,growth estimate
1,VQNIFRRYLWGLTAVHD,< -0.25
2,WCVTNQETGSMAESWRMIYV,< -0.25
3,SPVTTPRHEVSSCDRRARCK,< -0.25
4,LGYQKRFSRSWTD,< -0.25
5,EKRVTRVEFVGVHVDSDGRE,< -0.25
6,ERQGHSARIRQPAHSIILGC,0.116
7,RVSGVFSHRTIGLRILIADI,< -0.25
8,LHSQVSEGYANSK,< -0.25
9,AFVMTGLDLRASTLFTPFTT,< -0.25
10,TGGRVMVIPGTEIRSFRVVP,< -0.25
11,SMSQDPVQSTELRAYHTTRH,< -0.25
12,ESSSGGVCNGLTK,< -0.25
13,GSQADLSL,< -0.25
14,FVISNRENLCPQG,< -0.25
15,RCPLACMLRDVGTIPAQYFR,< -0.25
16,SVIHVRVWLRKRSGTGAQKM,< -0.25
17,PLVSKFDIVAV,< -0.25
18,YRHTYQTVCRATVGSGHATG,< -0.25
19,VGCNYLGE,< -0.25
20,RRIILFMYS,< -0.25
21,QRDIGCLKAKGGRAFSQGWD,< -0.25
22,IPGWTESWAEKRPRFRTVSC,< -0.25
23,KRIRSSIWHCCVDFLWYNKP,< -0.25
24,SEGLVGSSIVPGSRSNNHAD,< -0.25
25,VEVATLASSQVSLYLYRRLP,< -0.25
